Among all 350,000 compounds or so, about 6,000 (1.7%) were called active. The shares of active, inactive and inconclusive entries below differ from those in the screen. Rule as the data show it: active = CPE inhibition above about 20% (passing the limit was not always enough); inconclusive = no clear call, values can overlap the other calls; tested in BHK-21 cells.
experiment: protection of cells from dengue 2 killing – plate reader, single concentration, primary screen (AID 651640); settings: DENV2-infected cells, cytopathic effect rescue, at 9.99 µM, active compounds read high;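 also: 0% = median of neutral control wells and 100% = median of positive control wells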

| Compound | CPE inhibition |
| --- | --- |
| COc1cccc(CNC(=O)CSc2nc3c(oc4ccccc43)c(=O)n2CC2CCCO2)c1 (centres undefined) | inconclusive: 38.8% |
| COc1ccc2c3c(n(C)c2c1)[C@H](CO)N(Cc1ccc(F)cc1)CC31CCN(CC2CC2)CC1 | inconclusive: 45.8% |
| COc1cccc(-c2cnc3c(c2)C(=O)N([C@H](C)CO)C[C@H](C)[C@H](CN(C)Cc2ccccc2)O3)c1 | inconclusive: 28.9% |
| O=c1cc(-c2ccccc2)nc(SCCOc2ccccc2Cl)[nH]1 | inconclusive: 32% |
| N#CC1(NC(=O)COc2cc(F)ccc2[N+](=O)[O-])CCCCC1 | inconclusive: 36.3% |
| CCCc1cn(CC[C@H]2CC[C@@H](NS(=O)(=O)c3ccccc3Cl)[C@@H](CO)O2)nn1 | inconclusive: 29.7% |
| COc1ccc(NC(=O)Nc2cccc3c2O[C@H](CN(C)Cc2ccncc2)[C@@H](C)CN([C@H](C)CO)C3=O)cc1 | inconclusive: 28% |
| CCS(=O)(=O)Nc1ccc2c(c1)C(=O)N(C)[C@H]1CC[C@H](CC(=O)NC3CCCCC3)O[C@H]1CO2 | inactive: 11.6% |
| Cc1ccc(-c2cnc3c(c2)C(=O)N([C@@H](C)CO)C[C@@H](C)[C@H](CN(C)C(=O)CN(C)C)O3)cc1 | inconclusive: 39.1% |
| COc1cccc(-c2cnc3c(c2)C(=O)N([C@H](C)CO)C[C@H](C)[C@@H](CN(C)CC2CCOCC2)O3)c1 | inconclusive: 29.5% |
| COC(=O)C[C@H]1CC[C@H]2[C@@H](COc3ccc(NC(=O)c4ccccc4F)cc3C(=O)N2C)O1 | inactive: 8.71% |
| COc1ccc(NC(=O)c2ccc(NCCCN3CCOCC3)c([N+](=O)[O-])c2)cc1 | inconclusive: 34.3% |
| Cc1ccc(-c2nc(SCC(=O)c3c(N)n(C4CC4)c(=O)[nH]c3=O)n[nH]2)cc1 | inconclusive: 33.2% |
| COc1cc2c(cc1O)[C@@H]1Cc3cc(OC)c(OC)cc3C(C2)N1C | inconclusive: 57.8% |
| C[C@@H]1CN([C@H](C)CO)S(=O)(=O)c2ccc(-c3cccnc3)cc2O[C@@H]1CN(C)Cc1ccncc1 | inconclusive: 27.5% |
| Cc1ccc(S(=O)(=O)N(C)C[C@@H]2Oc3ccc(NC(=O)NC(C)C)cc3C(=O)N([C@@H](C)CO)C[C@@H]2C)cc1 | inconclusive: 22.5% |
| C[C@H](NC(=O)C[C@@H]1CC[C@H](NC(=O)Cc2ccccn2)[C@H](CO)O1)c1ccccc1 | inconclusive: 51.8% |
| CC(C)(Oc1ccc(C2CC2(Cl)Cl)cc1)C(=O)O (centres undefined) | inconclusive: 51.6% |
| CN(C)CC(=O)N1CCCCN2[C@H](CO)[C@H](c3ccc(-c4ccccc4)cc3)[C@@H]2C1 | inconclusive: 22.4% |
| Cc1cc2c(OCC(O)CNC3CCCCC3)cccc2[nH]1 (centres undefined) | inactive: -2.78% |
| C/C=C/c1ccc([C@H]2[C@@H](CO)N[C@@H]2CN(CC(C)C)C(=O)c2ccccn2)cc1 | inactive: -8.18% |
| O=c1oc2cc(OCc3c(F)c(F)c(F)c(F)c3F)ccc2cc1-c1ccccn1 | inactive: 14.5% |
| O=C(O)/C=C/C(=O)N1CCN(S(=O)(=O)c2cc(C(F)(F)F)ccc2Cl)CC1 | inconclusive: 23.4% |
| C[C@@H]1CN([C@@H](C)CO)C(=O)c2cccc(NC(=O)Nc3ccccc3)c2O[C@H]1CN(C)S(=O)(=O)c1ccc(F)cc1 | inconclusive: 65.6% |
| C=CCC1NS(=O)(=O)OC(COC)C1C (centres undefined) | active: 46.1% |

| Compound | CPE inhibition |
| --- | --- |
| CCCNC(=O)NC[C@@H]1[C@@H](c2ccc(C3=CCCC3)cc2)[C@@H](CO)N1C(=O)CC | active: 116% |
| COCCCNC(=O)C[C@H]1C[C@H](C(=O)N2CCOCC2)[C@@]2(CCC3CCCC3)c3[nH]c4cc(-c5ccco5)ccc4c3CCN2C1=O | inconclusive: 41.8% |
| O=C(O)CCCNC(=O)/C=C/c1ccco1 | inactive: 3.86% |
| C/C(=N\NC(=O)c1ccc(CSc2nncn2C)cc1)c1cccs1 | inactive: -5.74% |
| COc1ccc(/C(C)=N/NC(=O)c2cc(C)[nH]n2)c(OC)c1 | inconclusive: 33% |
| CC(C)COCC(O)CCC(=O)NNC(=S)Nc1ccccc1 (centres undefined) | active: 94% |
| CC(C(C(=O)N1CCCCC1)N1CCCCC1)N1CCCCC1 (centres undefined) | inconclusive: 23.7% |
| CN1CCN(C(=O)C2Cc3c(-c4cccc(F)c4)ccnc3O2)CC1 (centres undefined) | inconclusive: 43.9% |
| O=C(C[C@@H]1CC[C@H]2[C@@H](COC[C@@H](O)CN2C(=O)c2ccccc2)O1)N1CCOCC1 | inactive: -3.15% |
| Cc1noc(C)c1NC(=O)N[C@@H]1CC[C@@H](CCNC(=O)C2CCCC2)O[C@H]1CO | active: 25.3% |
| CC1(C)CC(=O)C2=C(C1)NC(=O)NC2c1ccccc1Cl (centres undefined) | inactive: 4% |
| O=c1[nH]cccc1-c1nc2ccccc2n1Cc1ccccc1F | inconclusive: 21% |
| O=[N+]([O-])c1cnc2ccccc2c1 | inconclusive: 23.3% |
| O=C(NCC1CC1)NC(=O)c1ccccc1F | inconclusive: 30.5% |
| Cc1cccc(NS(=O)(=O)c2csc(C(N)=O)c2)c1C | inactive: 2.48% |
| Cc1ccc(S(=O)(=O)N(C)C[C@H]2OCCCC[C@H](C)Oc3ccc(NC(=O)c4ccccc4)cc3C(=O)N([C@@H](C)CO)C[C@@H]2C)cc1 | inactive: -1.1% |
| O=C(Nc1cccc(F)c1)N1C[C@H]2[C@@H](c3ccccc31)[C@H](CO)N2C(=O)C1CCOCC1 | inactive: 13.7% |
| Nc1c(C(=O)N/N=C/c2ccccc2)cnn1-c1ccccc1 | inconclusive: 44.4% |
| COc1cccc(-c2cnc(C(O)c3cc(Cl)cc(Cl)c3)[nH]2)c1 (centres undefined) | inconclusive: 36.6% |
| Cc1cc(C(=O)CCC(=O)Nc2ccc(C(N)=O)cc2)c(C)s1 | inconclusive: 25.7% |
| C=C1CCN([C@@H](Cc2ccccc2)C(=O)NCc2ccccc2)S(=O)(=O)c2ccccc21 | inconclusive: 55.2% |
| C[C@@H]1CCCCO[C@@H](CN(C)C(=O)Nc2ccc(F)cc2)[C@H](C)CN([C@@H](C)CO)C(=O)c2cc(NC(=O)Nc3ccc4c(c3)OCO4)ccc2O1 | inconclusive: 20.4% |
| Nc1cccc2nsnc12 | inactive: 0.196% |
| Cc1ccc(C)c(NC(=O)COc2coc(CN3CCc4ccccc43)cc2=O)c1 | inconclusive: 73.1% |
| N#Cc1ccc(CSc2ccccn2)c(Cl)c1 | inconclusive: 27.2% |

| Compound | CPE inhibition |
| --- | --- |
| CC1CCCN(CCCOc2ccc(Br)cc2Cl)C1 (centres undefined) | active: 34% |
| O=S(=O)(N[C@@H]1CC[C@H](CCn2cc(C3(O)CCCC3)nn2)O[C@H]1CO)c1ccc(F)cc1 | inconclusive: 22.7% |
| COc1ccc(/C(C)=N/NC(=O)C2CC2)cc1 | inconclusive: 22.2% |
| COc1ccc(S(=O)(=O)N[C@@H]2CC[C@H](CC(=O)O)O[C@@H]2CO)cc1 | inactive: -0.372% |
| COCCNC(=O)c1onc(CSc2ccccn2)c1C(=O)NCCOC | inconclusive: 47.1% |
| O=C(C[C@H]1CC[C@@H](NC(=O)c2cccnc2)[C@@H](CO)O1)NCCN1CCCCC1 | inconclusive: 23.2% |
| Cc1cccc(NC(=O)c2ccc(N3C(=O)C4C5C=CC(C6CC56)C4C3=O)cc2)c1 (centres undefined) | inconclusive: 20.4% |
| CC(C)(O)C#Cc1ccc([C@@H]2[C@H]3CN(C(=O)c4ccc(F)cc4)CCCCN3[C@H]2CO)cc1 | inactive: 1.74% |
| CCOC(=O)C1CCN(Cc2c(C(=O)N3CCOCC3)nc3c(C)cccn23)CC1 | active: 115% |
| C[C@@H]1CN([C@H](C)CO)C(=O)c2cc(NC(=O)c3ccccc3)ccc2O[C@@H](C)CCCCO[C@@H]1CN(C)S(=O)(=O)c1ccc(F)cc1 | active: 98.1% |
| CCOc1ccc(/C=N/NC(=O)c2ccccc2O)cc1CN1CC2CC(C1)c1cccc(=O)n1C2 (centres undefined) | active: 58.1% |
| C[C@@H]1CN([C@@H](C)CO)C(=O)Cc2cc(NC(=O)Nc3ccc(F)cc3)ccc2O[C@H]1CN(C)Cc1ccc(Oc2ccccc2)cc1 | inactive: -20.8% |
| COC(=O)CNC(c1ccccc1)c1cc(Cl)ccc1NC(=O)c1cccc(Cl)c1 (centres undefined) | inconclusive: 28.1% |
| CNC[C@H]1OCCCC[C@@H](C)Oc2ccc(NS(C)(=O)=O)cc2C(=O)N([C@@H](C)CO)C[C@H]1C | inconclusive: 33.7% |
| COc1ccccc1C(=O)N/C(=N/c1nc(C)cc(C)n1)Nc1ccccc1 | inconclusive: 33.9% |
| CCOc1ccc(CCN2C(=O)C(=O)N([C@@H](Cc3ccccc3)CN3CCC[C@H]3CN3C(=O)C(=O)NC[C@@H]3Cc3ccc(O)cc3)C[C@@H]2CC(C)C)cc1 | inconclusive: 20.8% |
| COc1ccc2c3c(n(C)c2c1)[C@H](CO)N(Cc1ccc(F)cc1)CC31CN(CC2CCOCC2)C1 | inconclusive: 29.2% |
| C=CCNC(=O)CN1CCC(c2nc3ccccc3[nH]2)CC1 | inactive: -7.09% |
| CC1(C)CC(NS(=O)(=O)c2ccc(Cl)cc2)CC(C)(C)N1 | inconclusive: 20.1% |
| CCN(CC)S(=O)(=O)c1ccc(N2CCOCC2)c(NC(=O)c2ccc(=O)n(C)n2)c1 | inconclusive: 40.3% |
| CC(C)C[C@@H](CO)NC(=O)CC[C@H](NC(=O)OC(C)(C)C)C(=O)N(Cc1ccccc1)Cc1ccccc1 | inconclusive: 60% |
| CCc1nc2ccc(C(=O)NCc3ccccc3OC)cn2c1N(CCC(C)C)CCN(C)C | inconclusive: 48.7% |
| COC(=O)[C@]12CCCCC=C1N(Cc1cccc3ccccc13)C(=O)[C@H](CC(=O)NCC13CC4CC(CC(C4)C1)C3)C2 | active: 47.5% |
| C[C@H](CO)N1C[C@H](C)[C@@H](CN(C)C(=O)c2ccccc2)OCCCC[C@H](C)Oc2ccc(NS(=O)(=O)c3ccccc3)cc2C1=O | inconclusive: 62.2% |
